Results are given in words; binding and its absence hold for the method and conditions named. In cells and extracts the contact can be indirect. Some results given as binding are weak or reduced against the parent protein; the word gives no strength.
What was measured:
[1] = target: BAF53a (human (endogenous in HeLa)) (UniProt O96019); experiment: co-IP; rabbit polyclonal antibodies (Abcam) against BAF53a or Tip60 and beads; input: chromatin-free cytosolic (S2) fraction (2 mg/ml) of HeLa cells synchronized in telophase (thymidine/nocodazole); negative control without antibody; Western blot; three independent IPs
[2] = target: Tip60 (human (endogenous in HeLa)) (UniProt Q92993); experiment: as above

Protein sequences, listed by entry. Tags and fused reporters are not part of them.
UniProt O96019: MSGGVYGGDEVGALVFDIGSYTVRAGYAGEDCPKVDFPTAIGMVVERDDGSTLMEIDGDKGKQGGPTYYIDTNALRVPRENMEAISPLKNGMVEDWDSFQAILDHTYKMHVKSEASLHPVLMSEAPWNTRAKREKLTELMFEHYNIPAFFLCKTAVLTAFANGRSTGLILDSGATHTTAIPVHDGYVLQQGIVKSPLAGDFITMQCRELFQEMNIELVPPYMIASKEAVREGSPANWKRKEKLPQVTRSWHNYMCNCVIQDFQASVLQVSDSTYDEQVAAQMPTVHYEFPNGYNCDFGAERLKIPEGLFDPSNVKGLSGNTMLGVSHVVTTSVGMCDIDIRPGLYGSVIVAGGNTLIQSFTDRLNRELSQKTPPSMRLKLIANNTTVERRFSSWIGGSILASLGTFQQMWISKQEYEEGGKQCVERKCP
UniProt Q92993: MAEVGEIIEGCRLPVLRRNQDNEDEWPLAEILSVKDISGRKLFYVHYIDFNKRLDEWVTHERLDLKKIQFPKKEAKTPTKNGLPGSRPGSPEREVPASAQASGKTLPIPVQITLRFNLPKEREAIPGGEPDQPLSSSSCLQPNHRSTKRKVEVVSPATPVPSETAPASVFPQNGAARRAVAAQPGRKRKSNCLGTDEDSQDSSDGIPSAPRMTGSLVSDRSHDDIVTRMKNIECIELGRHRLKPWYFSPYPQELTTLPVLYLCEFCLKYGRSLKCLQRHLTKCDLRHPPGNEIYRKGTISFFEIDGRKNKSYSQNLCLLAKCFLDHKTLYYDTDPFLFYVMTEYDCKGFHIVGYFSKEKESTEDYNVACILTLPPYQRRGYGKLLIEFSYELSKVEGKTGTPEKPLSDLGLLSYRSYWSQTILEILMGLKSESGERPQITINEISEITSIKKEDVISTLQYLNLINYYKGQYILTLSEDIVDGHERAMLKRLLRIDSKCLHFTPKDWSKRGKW
UniProt Q96GD4: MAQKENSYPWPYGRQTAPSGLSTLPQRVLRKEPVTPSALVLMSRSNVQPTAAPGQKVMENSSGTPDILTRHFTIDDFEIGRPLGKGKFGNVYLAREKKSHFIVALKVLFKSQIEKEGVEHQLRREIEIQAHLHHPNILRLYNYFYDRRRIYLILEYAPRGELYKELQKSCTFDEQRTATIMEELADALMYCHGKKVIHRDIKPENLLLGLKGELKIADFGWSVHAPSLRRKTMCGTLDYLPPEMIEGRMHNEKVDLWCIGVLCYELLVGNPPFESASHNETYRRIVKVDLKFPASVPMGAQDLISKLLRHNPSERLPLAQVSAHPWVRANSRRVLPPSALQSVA
UniProt O95235: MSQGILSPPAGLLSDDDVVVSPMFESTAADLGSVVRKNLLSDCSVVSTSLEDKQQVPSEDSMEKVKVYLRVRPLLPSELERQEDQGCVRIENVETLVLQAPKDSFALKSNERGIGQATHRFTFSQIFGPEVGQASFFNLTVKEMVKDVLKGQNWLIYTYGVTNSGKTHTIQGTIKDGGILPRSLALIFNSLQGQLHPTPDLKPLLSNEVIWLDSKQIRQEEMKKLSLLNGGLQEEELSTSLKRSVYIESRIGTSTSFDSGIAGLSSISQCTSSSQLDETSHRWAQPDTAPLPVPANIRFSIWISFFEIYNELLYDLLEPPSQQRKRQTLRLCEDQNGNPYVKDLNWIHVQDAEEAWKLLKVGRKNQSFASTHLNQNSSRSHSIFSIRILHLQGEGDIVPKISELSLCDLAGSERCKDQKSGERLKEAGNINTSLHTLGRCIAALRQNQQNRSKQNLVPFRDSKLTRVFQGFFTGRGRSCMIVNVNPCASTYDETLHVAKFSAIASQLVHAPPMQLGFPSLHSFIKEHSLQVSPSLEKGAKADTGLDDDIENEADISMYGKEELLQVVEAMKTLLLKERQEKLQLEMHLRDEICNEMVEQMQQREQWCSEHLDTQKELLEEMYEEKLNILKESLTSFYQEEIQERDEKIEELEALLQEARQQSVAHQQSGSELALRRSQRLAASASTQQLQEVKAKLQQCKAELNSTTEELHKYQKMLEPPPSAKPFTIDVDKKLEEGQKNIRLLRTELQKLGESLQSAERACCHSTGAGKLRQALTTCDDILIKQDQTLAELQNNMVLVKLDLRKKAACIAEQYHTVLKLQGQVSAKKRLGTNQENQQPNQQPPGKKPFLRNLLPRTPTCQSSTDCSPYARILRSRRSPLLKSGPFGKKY
UniProt Q9UBU8: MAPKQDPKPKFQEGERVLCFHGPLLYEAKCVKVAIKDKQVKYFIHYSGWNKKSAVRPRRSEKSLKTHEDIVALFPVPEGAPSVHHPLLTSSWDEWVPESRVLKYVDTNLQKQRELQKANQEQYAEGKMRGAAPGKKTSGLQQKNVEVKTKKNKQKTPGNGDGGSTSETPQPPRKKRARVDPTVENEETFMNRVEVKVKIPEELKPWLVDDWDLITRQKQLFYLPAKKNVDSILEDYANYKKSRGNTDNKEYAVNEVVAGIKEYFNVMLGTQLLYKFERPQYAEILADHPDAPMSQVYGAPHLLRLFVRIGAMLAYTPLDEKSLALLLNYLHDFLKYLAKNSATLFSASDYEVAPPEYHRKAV
UniProt O14578: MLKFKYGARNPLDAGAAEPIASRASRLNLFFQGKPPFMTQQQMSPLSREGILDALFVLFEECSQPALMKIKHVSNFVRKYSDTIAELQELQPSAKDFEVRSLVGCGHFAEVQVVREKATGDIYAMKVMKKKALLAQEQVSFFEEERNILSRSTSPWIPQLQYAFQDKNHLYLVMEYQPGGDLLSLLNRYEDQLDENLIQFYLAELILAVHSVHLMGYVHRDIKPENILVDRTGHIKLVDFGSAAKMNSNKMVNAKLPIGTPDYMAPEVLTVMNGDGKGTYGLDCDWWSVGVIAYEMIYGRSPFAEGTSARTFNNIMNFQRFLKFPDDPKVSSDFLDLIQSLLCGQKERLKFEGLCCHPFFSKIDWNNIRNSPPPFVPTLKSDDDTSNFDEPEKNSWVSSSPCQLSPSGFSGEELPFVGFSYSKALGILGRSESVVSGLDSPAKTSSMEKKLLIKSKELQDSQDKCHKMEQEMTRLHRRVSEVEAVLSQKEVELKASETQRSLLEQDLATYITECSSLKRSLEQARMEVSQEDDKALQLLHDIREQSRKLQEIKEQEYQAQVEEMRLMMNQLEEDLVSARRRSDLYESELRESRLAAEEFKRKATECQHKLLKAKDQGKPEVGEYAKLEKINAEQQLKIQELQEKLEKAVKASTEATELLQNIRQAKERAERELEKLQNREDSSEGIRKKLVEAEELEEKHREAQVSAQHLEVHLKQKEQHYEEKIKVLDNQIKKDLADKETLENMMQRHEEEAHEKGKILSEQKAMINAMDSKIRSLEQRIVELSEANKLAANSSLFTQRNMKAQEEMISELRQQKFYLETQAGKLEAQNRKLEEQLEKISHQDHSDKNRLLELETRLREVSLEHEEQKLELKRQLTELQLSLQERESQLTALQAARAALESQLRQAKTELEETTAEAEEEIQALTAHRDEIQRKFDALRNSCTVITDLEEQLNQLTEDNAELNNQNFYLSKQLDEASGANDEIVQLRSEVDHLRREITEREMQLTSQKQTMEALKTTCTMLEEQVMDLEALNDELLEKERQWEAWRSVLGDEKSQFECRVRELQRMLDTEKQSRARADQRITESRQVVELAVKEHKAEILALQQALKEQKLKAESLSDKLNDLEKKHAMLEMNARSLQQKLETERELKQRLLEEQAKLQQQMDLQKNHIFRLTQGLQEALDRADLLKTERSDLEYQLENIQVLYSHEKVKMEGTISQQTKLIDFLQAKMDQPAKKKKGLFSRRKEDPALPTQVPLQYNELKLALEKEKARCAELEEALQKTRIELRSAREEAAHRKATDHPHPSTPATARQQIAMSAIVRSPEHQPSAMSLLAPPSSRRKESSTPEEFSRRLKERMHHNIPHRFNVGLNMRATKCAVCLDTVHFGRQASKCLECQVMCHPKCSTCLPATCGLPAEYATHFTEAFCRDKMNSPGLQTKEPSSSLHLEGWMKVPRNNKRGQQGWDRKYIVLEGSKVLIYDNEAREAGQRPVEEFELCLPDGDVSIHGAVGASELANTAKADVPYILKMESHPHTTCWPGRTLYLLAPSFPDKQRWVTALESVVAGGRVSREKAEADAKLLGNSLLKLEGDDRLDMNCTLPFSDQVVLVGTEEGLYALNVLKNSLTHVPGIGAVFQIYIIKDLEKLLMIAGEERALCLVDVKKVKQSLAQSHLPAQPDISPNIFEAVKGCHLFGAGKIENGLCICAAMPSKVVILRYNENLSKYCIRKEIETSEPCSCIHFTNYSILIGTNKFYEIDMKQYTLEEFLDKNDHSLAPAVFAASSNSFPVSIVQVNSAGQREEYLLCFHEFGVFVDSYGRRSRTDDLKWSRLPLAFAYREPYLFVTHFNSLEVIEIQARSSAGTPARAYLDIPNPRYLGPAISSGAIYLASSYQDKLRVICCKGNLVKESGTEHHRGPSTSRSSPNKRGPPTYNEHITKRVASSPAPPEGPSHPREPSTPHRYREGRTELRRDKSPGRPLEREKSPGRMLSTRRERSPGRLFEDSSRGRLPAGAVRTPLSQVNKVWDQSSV
UniProt Q8WUM4: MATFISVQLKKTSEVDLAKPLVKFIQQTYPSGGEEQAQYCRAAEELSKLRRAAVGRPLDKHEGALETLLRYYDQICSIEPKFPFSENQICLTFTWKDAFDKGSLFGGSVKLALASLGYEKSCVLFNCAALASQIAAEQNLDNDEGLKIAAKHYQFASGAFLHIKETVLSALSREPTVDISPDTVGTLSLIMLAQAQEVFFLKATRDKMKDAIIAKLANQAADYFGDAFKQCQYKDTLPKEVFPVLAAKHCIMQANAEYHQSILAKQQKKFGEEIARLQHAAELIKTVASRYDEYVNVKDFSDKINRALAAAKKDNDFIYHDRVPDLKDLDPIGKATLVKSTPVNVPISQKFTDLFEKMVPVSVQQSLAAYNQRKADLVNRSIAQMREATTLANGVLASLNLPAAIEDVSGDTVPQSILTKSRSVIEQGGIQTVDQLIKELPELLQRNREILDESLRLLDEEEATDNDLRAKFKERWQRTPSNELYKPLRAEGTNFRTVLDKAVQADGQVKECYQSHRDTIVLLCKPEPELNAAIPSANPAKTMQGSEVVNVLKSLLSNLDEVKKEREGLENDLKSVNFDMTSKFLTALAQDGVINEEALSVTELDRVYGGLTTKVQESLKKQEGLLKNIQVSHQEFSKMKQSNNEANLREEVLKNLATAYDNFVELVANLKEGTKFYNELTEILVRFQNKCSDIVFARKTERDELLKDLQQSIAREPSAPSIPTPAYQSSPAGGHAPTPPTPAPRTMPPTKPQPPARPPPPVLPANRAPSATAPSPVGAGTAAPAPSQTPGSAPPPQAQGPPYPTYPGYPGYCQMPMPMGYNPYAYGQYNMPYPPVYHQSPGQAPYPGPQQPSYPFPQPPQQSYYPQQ

| Molecule | binding [1] | binding [2] |
| --- | --- | --- |
| Aurora B (from UniProt Q96GD4 1-344) | binds | binds |
| MKLP2 (from UniProt O95235 1-890) | binds | binds |
| MRG15 (from UniProt Q9UBU8 1-362) | binds | binds |
| citron kinase (from UniProt O14578 1-2027) | binds | binds |
| CEP55 (protein, UniProt Q53EZ4 1-464) MSSRSTKDLIKSKWGSKPSNSKSETTLEKLKGEIAHLKTSVDEITSGKGKLTDKERHRLLEKIRVLEAEKEKNAYQLTEKDKEIQRLRDQLKARYSTTTLLEQLEETTREGERREQVLKALSEEKDVLKQQLSAATSRIAELESKTNTLRLSQTVAPNCFNSSINNIHEMEIQLKDALEKNQQWLVYDQQREVYVKGLLAKIFELEKKTETAAHSLPQQTKKPESEGYLQEEKQKCYNDLLASAKKDLEVERQTITQLSFELSEFRRKYEETQKEVHNLNQLLYSQRRADVQHLEDDRHKTEKIQKLREENDIARGKLEEEKKRSEELLSQVQFLYTSLLKQQEEQTRVALLEQQMQACTLDFENEKLDRQHVQHQLHVILKELRKARNQITQLESLKQLHEFAITEPLVTFQGETENREKVAASPKSPTAALNESLVECPKCNIQYPATEHRDLLVHVEYCSK | binds | binds |
| spastin (protein, UniProt Q9UBP0 1-616) MNSPGGRGKKKGSGGASNPVPPRPPPPCLAPAPPAAGPAPPPESPHKRNLYYFSYPLFVGFALLRLVAFHLGLLFVWLCQRFSRALMAAKRSSGAAPAPASASAPAPVPGGEAERVRVFHKQAFEYISIALRIDEDEKAGQKEQAVEWYKKGIEELEKGIAVIVTGQGEQCERARRLQAKMMTNLVMAKDRLQLLEKMQPVLPFSKSQTDVYNDSTNLACRNGHLQSESGAVPKRKDPLTHTSNSLPRSKTVMKTGSAGLSGHHRAPSYSGLSMVSGVKQGSGPAPTTHKGTPKTNRTNKPSTPTTATRKKKDLKNFRNVDSNLANLIMNEIVDNGTAVKFDDIAGQDLAKQALQEIVILPSLRPELFTGLRAPARGLLLFGPPGNGKTMLAKAVAAESNATFFNISAASLTSKYVGEGEKLVRALFAVARELQPSIIFIDEVDSLLCERREGEHDASRRLKTEFLIEFDGVQSAGDDRVLVMGATNRPQELDEAVLRRFIKRVYVSLPNEETRLLLLKNLLCKQGSPLTQKELAQLARMTDGYSGSDLTALAKDAALGPIRELKPEQVKNMSASEMRNIRLSDFTESLKKIKRSVSPQTLEAYIRWNKDFGDTTV | binds | binds |

Next, values leading:

| binding [1] | binding [2] | Molecule |
| --- | --- | --- |
| no binding | no binding | Alix (from UniProt Q8WUM4 1-868) |
| binds |  | Tip60 (from UniProt Q92993 1-513) |
| binds | binds | anillin (protein, UniProt Q9NQW6 1-1124) MDPFTEKLLERTRARRENLQRKMAERPTAAPRSMTHAKRARQPLSEASNQQPLSGGEEKSCTKPSPSKKRCSDNTEVEVSNLENKQPVESTSAKSCSPSPVSPQVQPQAADTISDSVAVPASLLGMRRGLNSRLEATAASSVKTRMQKLAEQRRRWDNDDMTDDIPESSLFSPMPSEEKAASPPRPLLSNASATPVGRRGRLANLAATICSWEDDVNHSFAKQNSVQEQPGTACLSKFSSASGASARINSSSVKQEATFCSQRDGDASLNKALSSSADDASLVNASISSSVKATSPVKSTTSITDAKSCEGQNPELLPKTPISPLKTGVSKPIVKSTLSQTVPSKGELSREICLQSQSKDKSTTPGGTGIKPFLERFGERCQEHSKESPARSTPHRTPIITPNTKAIQERLFKQDTSSSTTHLAQQLKQERQKELACLRGRFDKGNIWSAEKGGNSKSKQLETKQETHCQSTPLKKHQGVSKTQSLPVTEKVTENQIPAKNSSTEPKGFTECEMTKSSPLKITLFLEEDKSLKVTSDPKVEQKIEVIREIEMSVDDDDINSSKVINDLFSDVLEEGELDMEKSQEEMDQALAESSEEQEDALNISSMSLLAPLAQTVGVVSPESLVSTPRLELKDTSRSDESPKPGKFQRTRVPRAESGDSLGSEDRDLLYSIDAYRSQRFKETERPSIKQVIVRKEDVTSKLDEKNNAFPCQVNIKQKMQELNNEINMQQTVIYQASQALNCCVDEEHGKGSLEEAEAERLLLIATGKRTLLIDELNKLKNEGPQRKNKASPQSEFMPSKGSVTLSEIRLPLKADFVCSTVQKPDAANYYYLIILKAGAENMVATPLASTSNSLNGDALTFTTTFTLQDVSNDFEINIEVYSLVQKKDPSGLDKKKKTSKSKAITPKRLLTSITTKSNIHSSVMASPGGLSAVRTSNFALVGSYTLSLSSVGNTKFVLDKVPFLSSLEGHIYLKIKCQVNSSVEERGFLTIFEDVSGFGAWHRRWCVLSGNCISYWTYPDDEKRKNPIGRINLANCTSRQIEPANREFCARRNTFELITVRPQREDDRETLVSQCRDTLCVTKNWLSADTKEERDLWMQKLNQVLVDIRLWQPDACYKPIGKP |

Source: publication PMC9351137
